Assay results from publication PMC3577912.
No constants are given. Whether binding was seen depends on the method and setting. For part of these data: In cells and extracts the contact can be indirect. Some entries that bind do so weakly or less than the wild type. For part of these data: Sequences can lack the tags named with a protein.

By UniProt entry, the sequences of proteins in these tests, tags left out.
UniProt O81445: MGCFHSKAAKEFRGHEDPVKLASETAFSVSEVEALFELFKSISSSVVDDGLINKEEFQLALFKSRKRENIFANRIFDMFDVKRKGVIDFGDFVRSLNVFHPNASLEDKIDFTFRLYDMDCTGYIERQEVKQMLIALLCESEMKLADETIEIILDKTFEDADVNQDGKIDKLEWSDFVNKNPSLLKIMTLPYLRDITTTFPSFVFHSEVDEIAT

B1: AKINβ1, regulatory β subunit of the SnRK1 complex, prey fusion from pGADT7-AKINβ1 (protein, UniProt Q84VQ1 1-283)
chain: MGNANGKDEDAAAGSGGADVTSSSARSNGGDPSARSRHRRPSSDSMSSSPPGSPARSPSPFLFAPQVPVAPLQRANAPPPNNIQWNQSQRVFDNPPEQGIPTIITWNQGGNDVAVEGSWDNWRSRKKLQKSGKDHSILFVLPSGIYHYKVIVDGESKYIPDLPFVADEVGNVCNILDVHNFVPENPESIVEFEAPPSPDHSYGQTLPAAEDYAKEPLAVPPQLHLTLLGTTEETAIATKPQHVVLNHVFIEQGWTPQSIVALGLTHRFESKYITVVLYKPLTR
B2: YFPC-AKINβ1 (protein, UniProt Q84VQ1 1-283)
chain: B1 chain

What was measured:
[1] = biological target: CBL1 (calcineurin B-like protein 1), bait fusion from pGBKT7-CBL1 (Arabidopsis thaliana) (UniProt O81445); assay: two-hybrid; … system, yeast AH109; bait pGBKT7-CBL1, prey pGADT7-AKINβ1; growth on SD-Trp-Leu-Ade-His and β-galactosidase assay
[2] = biological target: CBL1 (calcineurin B-like protein 1), bait fusion from pGBKT7-CBL1 (Arabidopsis thaliana) (UniProt O81445); assay: two-hybrid; systematic yeast two-hybrid experiments of AKINβ1 with different AtCBL isoforms; data not shown
[3] = biological target: YFPN-CBL1 (Arabidopsis thaliana) (UniProt O81445); assay: split reporter; BiFC, YFPN-CBL1 and YFPC-AKINβ1 co-transformed into Arabidopsis protoplasts, confocal microscopy 16 h after incubation at room temperature

binding [1] | binding [2] | binding [3] | Binder
binds | binds |  | B1
 |  | binds | B2
